Measured data: PubChem BioAssay AID504791 (Drosophila RNAi Screening Center, 2011)
Purpose: 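Genes whose knock-down strengthens or weakens small-RNA reporter silencing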 (primary screen). Cell system: Drosophila S2-derived reporter cells. Knock-down reagent: long dsRNA against Drosophila genes, about 150-250 ng dsRNA per well (siRNA assay); about 80-120 ng (miRNA assay). Timing: about 5 days (siRNA assay); about 4 days (miRNA assay). Treatment: copper sulfate induction of reporters: 25 µM (siRNA assay); 200 mM stated (miRNA assay), 1-2 days before reading. Detection: 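Per-well ratio of Renilla over firefly light, expressed relative to that plate's average ratio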. Rule for the call: 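a well was a first-pass pick when its plate-scaled ratio rose above 1.5 (siRNA assay) or 1.6 (miRNA assay), or dropped below 0.6; a gene counted only if two separate dsRNAs agreed on retest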.
The deposit covers about 23,000 reagents; below is an unselected part of those with a known target gene and a result. Over the whole deposit, 199 (0.86%) were called active. 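Plate-scaled ratios behind the calls are not deposited; printed light signals are raw; many rows marked increased or decreased are still called inactive.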 A plus sign joins genes that one reagent is predicted to hit. Not given: the direction of the score.

| predicted target | DRSC id | stable assay Renilla, run 1 (luminescence) | stable assay firefly, run 1 (luminescence) | activity call |
| --- | --- | --- | --- | --- |
| Pef (GeneID 36111) | DRSC06695 | 7727 | 3.31e5 | inactive |
| CCAP (GeneID 42683) | DRSC15674 | 7631 | 4.61e5 | inactive |
| PIG-H + Kmn2 | DRSC12653 | 7510 | 4.65e5 | inactive |
| wmd (GeneID 37727) | DRSC04436 | 1.68e5 | 3.07e5 | inactive |
| CG14301 (GeneID 42235) | DRSC14780 | 8845 | 5.20e5 | inactive |
| CG9672 (GeneID 32651) | DRSC20201 | 8513 | 6.89e5 | inactive |
| Vm26Aa (GeneID 33829) | DRSC03472 | 6686 | 4.03e5 | inactive |
| cN-IIIB (GeneID 37875) | DRSC04359 | 7571 | 1.62e6 | inactive |
| CG3764 (GeneID 39902) | DRSC10375 | 7908 | 3.74e5 | inactive |
| Dtwd2 + Obp84a | DRSC12603 | 6987 | 3.80e5 | inactive |
| CG32727 (GeneID 318176) | DRSC17519 | 5747 | 3.64e5 | inactive |
| CG34249 (retired record) (GeneID 5740397) | DRSC09431 | 6292 | 3.41e5 | inactive |
| CG13545 (GeneID 37675) | DRSC04187 | 5272 | 2.76e5 | inactive |
| side (GeneID 43300) | DRSC14523 | 4175 | 4.08e5 | inactive |
| side (GeneID 43300) | DRSC14716 | 6884 | 4.21e5 | inactive |
| side (GeneID 43300) | DRSC14717 | 6687 | 3.74e5 | inactive |
| side (GeneID 43300) | DRSC14718 | 7555 | 3.63e5 | inactive |
| side (GeneID 43300) | DRSC14721 | 6339 | 3.30e5 | inactive |
| wge (GeneID 42687) | DRSC15246 | 8726 | 3.78e5 | inactive |
| wge (GeneID 42687) | DRSC15672 | 6239 | 3.16e5 | inactive |
| CG3594 (GeneID 37964) | DRSC04393 | 7850 | 2.01e6 | inactive |
| CG3594 (GeneID 37964) | DRSC21959 | 9632 | 5.91e5 | inactive |
| Eig71Ej (GeneID 39711) | DRSC11157 | 7068 | 3.61e5 | inactive |
| CG5160 (GeneID 34015) | DRSC02821 | 6416 | 3.62e5 | inactive |
| ninaA (GeneID 33271) | DRSC00830 | 48970 | 1.70e5 | inactive |
| CG32633 (GeneID 326225) | DRSC18987 | 4502 | 4.05e5 | inactive |
| CG31388 (GeneID 41355) | DRSC15254 | 8815 | 4.74e5 | inactive |
| Him (GeneID 32801) | DRSC19638 | 6164 | 4.27e5 | inactive |
| mxt (GeneID 33686) | DRSC00551 | 9748 | 2.76e5 | inactive |
| kraken (GeneID 33265) | DRSC00824 | 7042 | 3.61e5 | inactive |
| CG12075 (GeneID 31815) | DRSC17801 | 8535 | 3.83e5 | inactive |
| CG8353 (GeneID 34123) | DRSC03084 | 7319 | 3.50e5 | inactive |
| Eig71Ea (GeneID 39700) | DRSC11148 | 7386 | 4.30e5 | inactive |
| NFAT (GeneID 32321) | DRSC18991 | 4879 | 4.31e5 | inactive |
| NFAT (GeneID 32321) | DRSC19393 | 5834 | 6.35e5 | inactive |
| CG8117 (GeneID 32499) | DRSC20082 | 6939 | 6.14e5 | inactive |
| Cow (GeneID 42733) | DRSC13601 | 5559 | 6.16e5 | inactive |
| Cow (GeneID 42733) | DRSC14680 | 6842 | 3.19e5 | inactive |
| CG13954 (GeneID 35959) | DRSC06442 | 6011 | 3.28e5 | inactive |
| CG42795 (GeneID 41252) | DRSC12772 | 8370 | 5.74e5 | inactive |
| CG42795 (GeneID 41252) | DRSC15533 | 7322 | 3.38e5 | inactive |
| Fs (GeneID 2768836) | DRSC06258 | 10865 | 4.35e5 | inactive |
| Fs (GeneID 2768836) | DRSC06259 | 5839 | 2.34e5 | inactive |
| Fbxl4 (GeneID 32378) | DRSC19805 | 8039 | 4.97e5 | inactive |
| Apt1 (GeneID 59176) | DRSC10348 | 6974 | 5.42e5 | inactive |
| l(2)09851 (GeneID 46662) | DRSC04858 | 6663 | 4.00e5 | inactive |
| Sytbeta (GeneID 39630) | DRSC10009 | 6556 | 3.58e5 | inactive |
| Sytbeta (GeneID 39630) | DRSC10351 | 7687 | 3.83e5 | inactive |
| CG8306 (GeneID 36857) | DRSC07141 | 8718 | 3.35e5 | inactive |
| CG17186 (GeneID 42363) | DRSC15180 | 8329 | 5.00e5 | inactive |
| ac (GeneID 30981) | DRSC18734 | 6731 | 2.72e5 | inactive |
| CG14610 + asRNA:CR42738 | DRSC12554 | 6086 | 3.42e5 | inactive |
| PPP4R2r (GeneID 31979) | DRSC18695 | 4111 | 3.68e5 | inactive |
| PPP4R2r (GeneID 31979) | DRSC21503 | 8500 | 5.27e5 | inactive |

Entries above whose target name starts with S or s:
| predicted target | DRSC id | stable assay Renilla, run 1 (luminescence) | stable assay firefly, run 1 (luminescence) | activity call |
| --- | --- | --- | --- | --- |
| side (GeneID 43300) | DRSC14523 | 4175 | 4.08e5 | inactive |
| side (GeneID 43300) | DRSC14716 | 6884 | 4.21e5 | inactive |
| side (GeneID 43300) | DRSC14717 | 6687 | 3.74e5 | inactive |
| side (GeneID 43300) | DRSC14718 | 7555 | 3.63e5 | inactive |
| side (GeneID 43300) | DRSC14721 | 6339 | 3.30e5 | inactive |
| Sytbeta (GeneID 39630) | DRSC10009 | 6556 | 3.58e5 | inactive |
| Sytbeta (GeneID 39630) | DRSC10351 | 7687 | 3.83e5 | inactive |

Continued.
| predicted target | DRSC id | stable assay Renilla, run 1 (luminescence) | stable assay firefly, run 1 (luminescence) | activity call |
| --- | --- | --- | --- | --- |
| CG14818 (GeneID 31147) | DRSC18548 | 5707 | 3.36e5 | inactive |
| CG10953 (GeneID 36941) | DRSC06021 | 6692 | 3.86e5 | inactive |
| POLDIP2 (GeneID 40655) | DRSC12194 | 7270 | 5.17e5 | inactive |
| Tes (GeneID 36965) | DRSC06996 | 6474 | 3.10e5 | inactive |
| CG15344 (retired record) (GeneID 31769) | DRSC18029 | 5627 | 2.63e5 | inactive |
| CG32066 (GeneID 39206) | DRSC10652 | 10598 | 5.73e5 | inactive |
| CG32066 (GeneID 39206) | DRSC10653 | 8089 | 4.58e5 | inactive |
| AANATL6 (GeneID 37212) | DRSC06773 | 6775 | 3.08e5 | inactive |
| RpS5a (GeneID 32700) | DRSC20282 | 7059 | 5.10e5 | inactive |
| Ude (GeneID 42953) | DRSC15324 | 7498 | 2.80e5 | inactive |
| CG12934 (GeneID 36124) | DRSC06247 | 5779 | 2.50e5 | inactive |
| Capr (GeneID 59172) | DRSC10346 | 7356 | 3.62e5 | inactive |
| CG10841 (GeneID 41665) | DRSC14271 | 7702 | 5.22e5 | inactive |
| Sfp38D (GeneID 8673971) | DRSC01810 | 5204 | 3.58e5 | inactive |
| Spn55B (GeneID 49803) | DRSC07694 | 4547 | 4.08e5 | inactive |
| Spn55B (GeneID 49803) | DRSC21862 | 9281 | 4.97e5 | inactive |
| CG31296 (GeneID 318668) | DRSC13092 | 5162 | 3.49e5 | inactive |
| Rac1 (GeneID 38146) | DRSC08688 | 3727 | 3.16e5 | inactive |
| Elal (GeneID 42970) | DRSC16662 | 12452 | 5.16e5 | inactive |
| CG18585 (GeneID 34041) | DRSC02678 | 1.58e5 | 2.56e5 | inactive |
| Blos1 (GeneID 246439) | DRSC05970 | 6814 | 3.15e5 | inactive |
| CG2186 (GeneID 32017) | DRSC19838 | 7347 | 4.46e5 | inactive |
| OS9 (GeneID 59167) | DRSC02700 | 6331 | 4.09e5 | inactive |
| l(1)G0289 (GeneID 31964) | DRSC18215 | 6883 | 4.19e5 | inactive |
| CG42284 (GeneID 37621) | DRSC22094 | 8838 | 5.69e5 | inactive |
| CG42284 (GeneID 37621) | DRSC22342 | 9494 | 4.81e5 | inactive |
| CG12012 (GeneID 38422) | DRSC08220 | 6520 | 3.99e5 | inactive |
| CG32069 + Blos2 | DRSC10621 | 7339 | 3.89e5 | inactive |
| CG7907 (GeneID 42539) | DRSC16339 | 8166 | 3.60e5 | inactive |
